Measured values: PMC12024694, “RNA Binding to CCRRM of PABPN1 Induces Conformation Change”
These are yes or no findings as the source states them, for the method shown.

Biological target: CCRRM fragment of PABPN1 (Poly(A) Binding Protein Nuclear 1), amino acids 114-254 (UniProt Q86U42)
Test: SAXS; SEC-SAXS of RNA-free CCRRM in Tris-HCl buffer, flow 0.5 mL/min, beamline BL19U2 of SSRF; both purified

- binding: no binding
B1: CCRRM fragment of PABPN1 (Poly(A) Binding Protein Nuclear 1), amino acids 114-254 (domain or fragment, UniProt Q86U42 114-254)
chain: IEDPELEAIKARVREMEEEAEKLKELQNEVEKQMNMSPPPGNAGPVIMSIEEKMEADARSIYVGNVDYGATAEELEAHFHGCGSVNRVTILCDKFSGHPKGFAYIEFSDKESVRTSLALDESLFRGRQIKVIPKRTNRPGI
